Measurements as given in PubChem BioAssay AID1671190 (National Center for Advancing Translational Sciences (NCATS), 2021).
The whole screen tested about 580,000 compounds, of which about 6,100 (1.1%) were called active. The shares of active, inactive and inconclusive entries below differ from those in the screen. Calls follow the shape of the dose curve; as a rule, active = well fitted inhibition curve with a large enough effect; inconclusive = small, poorly fitted or top-dose-only effect, or another doubt; inactive = no such curve, though single readings can be large or run the other way. Potencies of inconclusive entries are doubtful fits and often do not repeat.

Protein sequences, listed by entry. Tags and fused reporters are not part of them. Lines headed by an entry give the natural chain unless they say otherwise; changes in a name come on top.
UniProt P18054: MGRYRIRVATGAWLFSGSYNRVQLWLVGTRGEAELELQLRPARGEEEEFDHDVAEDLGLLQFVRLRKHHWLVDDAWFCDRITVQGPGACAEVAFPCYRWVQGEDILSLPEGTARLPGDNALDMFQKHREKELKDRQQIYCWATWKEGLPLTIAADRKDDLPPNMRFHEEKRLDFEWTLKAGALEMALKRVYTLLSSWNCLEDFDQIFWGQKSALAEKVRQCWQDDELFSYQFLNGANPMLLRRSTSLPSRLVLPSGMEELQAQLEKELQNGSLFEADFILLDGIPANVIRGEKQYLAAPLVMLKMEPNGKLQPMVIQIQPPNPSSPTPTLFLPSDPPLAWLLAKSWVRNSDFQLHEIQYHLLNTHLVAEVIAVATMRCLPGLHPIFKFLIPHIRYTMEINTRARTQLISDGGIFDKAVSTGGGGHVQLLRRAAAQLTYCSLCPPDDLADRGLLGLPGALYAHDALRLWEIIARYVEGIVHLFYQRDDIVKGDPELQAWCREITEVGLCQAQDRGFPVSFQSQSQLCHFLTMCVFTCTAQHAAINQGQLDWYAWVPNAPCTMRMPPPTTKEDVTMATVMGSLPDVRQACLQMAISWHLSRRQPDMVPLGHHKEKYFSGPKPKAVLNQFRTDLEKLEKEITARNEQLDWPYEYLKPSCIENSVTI

Target: Polyunsaturated fatty acid lipoxygenase ALOX12 (Homo sapiens) (UniProt P18054)
Assay: Primary qHTS assay for inhibitors of human arachidonate 12S-lipoxygenase (ALOX12): Round 2
Conditions: purified 12hLO, xylenol orange hydroperoxide absorbance; activity change, negative = inhibition: at 108 µM (top of the series) unless noted
Method in brief: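 Purified human 12hLO (150 nM final) in 25 mM Hepes, 0.01% Triton X-100, pH 7.0 was preincubated 15 min at room temperature with compound. Then 40 uM arachidonic acid was added, 30 min. Hydroperoxide was read by Fe-XO absorbance ratio 573/405 nm.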
% is scaled to controls: 0 for no effect and ±100 for the full control effect; potency is read from the fitted curve at half-maximal effect.

Question: How did the Potency turn out when Cc1ccc(CNC(=O)Cn2cc(S(=O)(=O)Cc3ccccc3F)c3ccccc32)cc1 was run?
Answer: inconclusive: 100 µM [inhibitor, partial curve, poor fit]

Question: How did the Potency turn out when O=[N+]([O-])c1ccc(N2CCN(Cc3ccc4c(c3)OCO4)CC2)nc1 was run?
Answer: inconclusive: 35.5 µM [inhibitor, partial curve, poor fit]

Question: For O=C(Cc1csc(NC(=O)Nc2cccc(Cl)c2)n1)NCc1ccccn1, which “activity change, negative = inhibition” value is on record?
Answer: inactive: -10%

Question: With CCC(O)C1=C(c2ccccc2)Oc2ccccc2C1c1ccccc1 (stereo not drawn) as the compound, how does the Potency read?
Answer: inconclusive: 158 µM [inhibitor, single point]

Question: With Cc1ccc(C)c(-n2cc[nH]c2=S)c1 as the compound, how does the Potency read?
Answer: inconclusive: 50.1 µM [inhibitor, single point]

Question: With CCOc1ccc(CN(C)C(=O)c2nn(Cc3ccccc3)c(=O)c3ccccc23)cc1OC as the compound, how does the “activity change, negative = inhibition” value read?
Answer: inactive: -20.8%

Question: Which Potency does the source give for COCCSc1nnc(NC(=O)CSCc2ccccc2)s1 here?
Answer: inconclusive: 44.7 µM [inhibitor, partial curve, poor fit]

Question: For C=CCc1ccccc1OCC(O)CN1CCN(c2ccccc2)CC1 (stereo not drawn), which Potency is on record?
Answer: inconclusive: 35.5 µM [inhibitor, partial curve, poor fit]

Question: COc1ccc(OCCOC(=O)CNC(=O)c2cccc(C)c2)cc1 was tested. Which “activity change, negative = inhibition” value did it give?
Answer: inactive: -15.2%

Question: With O=C(NCc1cccn1Cc1ccc(Cl)cc1)NC12CC3CC(CC(C3)C1)C2 as the compound, how does the Potency read?
Answer: inconclusive: 28.2 µM [inhibitor, partial curve, poor fit]

Question: Cn1c(SCC(O)c2ccccc2)nnc1-c1ccc2ccccc2c1 (stereo not drawn) was tested. Which Potency did it give?
Answer: inconclusive: 112 µM [inhibitor, single point]

Question: With CCc1nc2c(OCC(=O)c3ccc(Cl)cc3Cl)cccn2c1N(C=O)Cc1ccc(OC)cc1 as the compound, how does the Potency read?
Answer: inconclusive: 44.7 µM [inhibitor, partial curve]

Question: How did the “activity change, negative = inhibition” value turn out when COc1cccc(C(O)c2nc(C(=O)Nc3ccc4c(c3)OCC(=O)N4)c(C)o2)c1 (stereo not drawn) was run?
Answer: inactive: -4.95% [at 176 µM]

Question: How did the Potency turn out when Cc1cc(C)nc(Nc2ccccc2F)n1 was run?
Answer: inconclusive: 14.1 µM [inhibitor, full curve]

Question: How did the Potency turn out when O=C(O)c1cc2c(c(S(=O)(=O)Nc3cccc(Cl)c3F)c1)CCC2 was run?
Answer: inconclusive: 35.5 µM [inhibitor, partial curve]

Question: CCCCCNC(=O)C(c1ccc(-c2ccccc2)cc1)n1c(=O)c(-c2ccccc2)nc2ccccc21 (stereo not drawn) was tested. Which “activity change, negative = inhibition” value did it give?
Answer: inactive: 0.506%

Question: With Cc1ccc(C2NC(=O)NC3=C2CCc2ccccc23)cc1 (stereo not drawn) as the compound, how does the Potency read?
Answer: inconclusive: 44.7 µM [inhibitor, partial curve, poor fit]

Question: How did the “activity change, negative = inhibition” value turn out when O=C(Nc1cc(Cl)cc(Cl)c1)C1CC(=O)N(C2CCCC2)C1 (stereo not drawn) was run?
Answer: inactive: -28.3%

Question: CCc1noc(COc2ccc(C(=O)NC)cc2)n1 was tested. Which Potency did it give?
Answer: inconclusive: 112 µM [inhibitor, single point]

Question: Cc1nn(CCC#N)c2nc(C(F)(F)F)[nH]c(=O)c12 was tested. Which Potency did it give?
Answer: inconclusive: 89.1 µM [inhibitor, single point]

Question: For O=C(OCC(=O)N1CCN(C(=O)c2ccco2)CC1)c1cc(-c2cccc(Br)c2)nc2ccccc12, which Potency is on record?
Answer: inconclusive: 56.2 µM [inhibitor, partial curve, poor fit]

Question: For O=S1(=O)C[C@@H](N2CCCC2)[C@H](COCc2ccccc2)N1, which Potency is on record?
Answer: inconclusive: 31.6 µM [inhibitor, partial curve, poor fit]

Question: How did the “activity change, negative = inhibition” value turn out when O=C1CCN(C(=O)C2CCOCC2)CCCC(c2nc(-c3cccnc3)no2)CCN1 (stereo not drawn) was run?
Answer: inactive: 41.4%

Question: With COc1ccc(C(CC(=O)NCc2ccccc2)N2Cc3ccccc3C2=O)cc1 (stereo not drawn) as the compound, how does the activity change, negative = inhibition read?
Answer: inconclusive: -32.4% [inhibitor]

Question: Which “activity change, negative = inhibition” value does the source give for C[C@H]1[C@@H](NC(=O)Nc2ccc(C#N)cc2)CC[C@@]23CCCN2C(=O)CCC[C@@H]13 here?
Answer: inactive: 5.46%

Question: Cc1cnc(C(=O)N[C@@H]2CCC[C@@H]2C(=O)N2CCN(c3ncccn3)CC2)cn1 was tested. Which “activity change, negative = inhibition” value did it give?
Answer: inactive: 1.86%

Question: How did the “activity change, negative = inhibition” value turn out when CCc1ccc(S(=O)(=O)Nc2cccc(CN(CC)C(C)=O)c2)s1 was run?
Answer: inactive: -26.2%

Question: For CC(C)C(OC(=O)/C=C/c1cccc(F)c1)C(=O)NC(N)=O (stereo not drawn), which Potency is on record?
Answer: inconclusive: 50.1 µM [inhibitor, partial curve, poor fit]

Question: How did the Potency turn out when O=C(N/N=C/c1cc2c(c([N+](=O)[O-])c1)OCO2)c1ccncc1 was run?
Answer: inconclusive: 50.1 µM [inhibitor, partial curve, poor fit]

Question: For O=C1CC2CCCN2C=C1I (stereo not drawn), which Potency is on record?
Answer: inconclusive: 11.2 µM [inhibitor, partial curve, poor fit]

Question: With O=C(N/N=C/c1coc2ccc(Cl)cc2c1=O)c1ccc(O)cc1 as the compound, how does the Potency read?
Answer: inconclusive: 39.8 µM [inhibitor, partial curve, poor fit]

Question: For CC(C)c1ccccc1NC(=O)/C=C/c1c(F)cccc1Cl, which Potency is on record?
Answer: inconclusive: 100 µM [inhibitor, partial curve, poor fit]

Question: With O=S1(=O)NC(=NCCc2ccccn2)c2ccccc21 as the compound, how does the Potency read?
Answer: inactive

Question: COc1ccc(NC(=S)NNC(=O)CNc2ccc(Cl)cc2)cc1 was tested. Which Potency did it give?
Answer: inconclusive: 44.7 µM [inhibitor, partial curve, poor fit]

Question: Which “activity change, negative = inhibition” value does the source give for COc1ccc(OC)c(CCNC(=O)c2ccc3[nH]c(C)c(C)c3c2)c1 here?
Answer: inactive: -18.2%

Question: Which “activity change, negative = inhibition” value does the source give for CCN(C1CCOCC1)C1CN(C(=O)c2ccnn2C)C1 here?
Answer: inactive: 43%

Question: How did the Potency turn out when CCCCc1c(O)nc(SCC(=O)N2CCCCC2)[nH]c1=O was run?
Answer: inconclusive: 100 µM [inhibitor, single point]

Question: For O=C(CC[C@@H]1CNC(=O)[C@@H]2C[C@H](NC(=O)Nc3ccccc3)CN12)NCc1ccccc1, which Potency is on record?
Answer: inconclusive: 35.5 µM [inhibitor, full curve]

Question: Which Potency does the source give for CN1CC(=O)N(C2CCNCC2)Cc2c(NC3CCCCC3)ncnc21 here?
Answer: inconclusive: 6.31 µM [inhibitor, full curve]

Question: With CCN(CC)c1ccc(C=Nc2ccc(Nc3ccccc3)cc2)cc1 as the compound, how does the Potency read?
Answer: active: 20 µM

Question: For CC1CCN(C(=O)CN2CCN(c3nc(C(C)C)c4c(c3C#N)CCC4)CC2)CC1, which Potency is on record?
Answer: inconclusive: 2 µM [inhibitor, full curve, poor fit]

Question: CCCn1nc(NC(=O)CC)c2cc3cccc(C)c3nc21 was tested. Which Potency did it give?
Answer: inconclusive: 89.1 µM [inhibitor, single point]

Question: For COc1ccc(NCC(=O)NC(C)(C#N)C(C)C)cc1Cl (stereo not drawn), which Potency is on record?
Answer: inconclusive: 44.7 µM [inhibitor, partial curve, poor fit]
